Experimental data: patent publication US5264347A, “Method for the determination of α-ketoisocaproate in biological samples using D-α-hydroxyisocaproic dehydrogenase from lactobacillus casei” (Kernforschungsanlage Juelich GmbH, priority 1988, dated 1993)
At least one structure is not confirmed: it was looked up by name or label, or the drawing left a doubt.

Key:
[1] = system: hydroxy-acid dehydrogenase (enzyme solution) of L. casei ssp. rhamosus DSM 20 021; assay: Selection of a suitable enzyme: initial reaction rate with keto acid, NADH absorption at 340 nm; type: biochemical; details: 0.15 mM keto acid, 0.2 mM NADH, pH 7.0
Protocol: (§1) The species Lactobacillus casei is currently divided into five subgroups (subspecies). […] The three keto acids KIC, KMV and KIV were used in a concentration of 0.15 mM (final concentration in the assay).
(§2) For the assay mixture, the microorganisms which had been cultured under customary conditions were harvested, the cells were disrupted by mechanical action, and the supernatant obtained by centrifugation was used as "enzyme solution" for the assay.
(§3) The assay mixture contained:
(§4) 0.1M potassium phosphate buffer, pH 7.0;
(§5) 0.020 ml of enzyme solution (0.1-0.2 mg of protein);
(§6) The initial reaction rate was determined by measuring the absorption at 340 nm as a function of time. (The reaction rate is reported in international units (IU)/min.) The results obtained are summarized below.

[2] = molecular target: T1, D-α-hydroxyisocaproic dehydrogenase from Lactobacillus casei ssp. pseudoplantarum (DSM 20008) (Lacticaseibacillus paracasei, UniProt P17584); assay: Enzymatic selectivity for KIC: initial reaction rates versus keto acid concentration (FIG. 1); type: biochemical; details: change per minute in absorption at 340 nm versus keto-acid concentration, NADH present
T1 construct: D-α-hydroxyisocaproic dehydrogenase from Lactobacillus casei ssp. pseudoplantarum (DSM 20008); endogenous in cells; host or cells: Lactobacillus casei ssp. pseudoplantarum DSM 20008 (enzyme isolated from the strain's own cells)
T1 sequence (P17584 1-333): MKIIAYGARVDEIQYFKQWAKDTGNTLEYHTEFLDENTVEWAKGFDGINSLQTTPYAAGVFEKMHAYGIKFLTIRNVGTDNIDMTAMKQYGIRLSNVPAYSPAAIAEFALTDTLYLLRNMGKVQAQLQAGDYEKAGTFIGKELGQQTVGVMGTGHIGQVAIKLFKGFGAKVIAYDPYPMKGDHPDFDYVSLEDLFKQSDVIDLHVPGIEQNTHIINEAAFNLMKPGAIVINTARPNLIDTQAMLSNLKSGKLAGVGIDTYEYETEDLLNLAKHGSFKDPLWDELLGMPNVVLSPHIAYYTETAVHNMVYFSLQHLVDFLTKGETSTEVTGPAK
Excerpt: This selectivity is illustrated in FIG. 1, which plots a measure of reaction rate (change per minute in absorption at 340 nm), in the presence of NADH and a Lactobacillus casei D-α-hydroxyisocaproicdehydrogenase, versus keto-acid concentration for KIC, KMV and KIV, respectively. In FIG. 1, .largecircle.--.largecircle. represents ketoisocaproate, O O represents ketomethylvalerate and .quadrature.----.quadrature. represents ketoisovalerate, respectively.
This entailed use of standard solutions of the three keto acids, each of known concentration (0.2 to 15 ωg/ml of assay mixture).
as §3, §4
stepped concentrations of keto acids.
The initial reaction rates (ΔA340 /min) were measured at 340 nm. […] This difference would be sufficient for a selective determination of KIC, for example, in serum.

[3] = molecular target: T2, hydroxy-acid dehydrogenase (enzyme solution) of L. casei ssp. casei DSM 20 011 (Lacticaseibacillus casei, UniProt A0AAN1C5W2); assay: Selection of a suitable enzyme: initial reaction rate with keto acid, NADH absorption at 340 nm; type: biochemical, Lactobacillus casei ssp. casei; details: 0.15 mM keto acid, 0.2 mM NADH, pH 7.0
T2 sequence (A0AAN1C5W2 1-333): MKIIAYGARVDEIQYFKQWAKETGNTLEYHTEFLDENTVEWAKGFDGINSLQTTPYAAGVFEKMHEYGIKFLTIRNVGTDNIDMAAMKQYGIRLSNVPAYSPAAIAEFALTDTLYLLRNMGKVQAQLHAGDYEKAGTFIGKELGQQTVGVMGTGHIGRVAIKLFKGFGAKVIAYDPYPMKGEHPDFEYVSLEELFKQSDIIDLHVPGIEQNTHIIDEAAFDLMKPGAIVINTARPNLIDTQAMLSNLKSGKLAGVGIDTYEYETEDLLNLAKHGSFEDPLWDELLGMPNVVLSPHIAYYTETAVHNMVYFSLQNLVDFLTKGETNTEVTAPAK
Protocol: as §1, §2, §3, §4, §5, §6

Compound	initial reaction rate [1]	enzymatic conversion relative to the conversion of KIC (FIG. 1) [2]	initial reaction rate [3]
CC(C)C(=O)C(=O)O [KIV, ketoisovalerate]	0 IU/min	can be ignored	0.08 IU/min
CC(C)CC(=O)C(=O)O [KIC, α-ketoisocaproate]	0 IU/min	–	1.07 IU/min
